Source: paper PMC10617771
No constants are given. Whether binding was seen depends on the method and setting. In cells and extracts the contact can be indirect. A yes stands for co-enrichment or nearness to the bait. Other partners may have been found. Tags and fused reporters may be left off the sequences shown.

Biological target: T1, Myc-DUSP8 of the anti-myc immunocomplexes used for mass spectrometry (mouse) (UniProt O09112)
T1 sequence: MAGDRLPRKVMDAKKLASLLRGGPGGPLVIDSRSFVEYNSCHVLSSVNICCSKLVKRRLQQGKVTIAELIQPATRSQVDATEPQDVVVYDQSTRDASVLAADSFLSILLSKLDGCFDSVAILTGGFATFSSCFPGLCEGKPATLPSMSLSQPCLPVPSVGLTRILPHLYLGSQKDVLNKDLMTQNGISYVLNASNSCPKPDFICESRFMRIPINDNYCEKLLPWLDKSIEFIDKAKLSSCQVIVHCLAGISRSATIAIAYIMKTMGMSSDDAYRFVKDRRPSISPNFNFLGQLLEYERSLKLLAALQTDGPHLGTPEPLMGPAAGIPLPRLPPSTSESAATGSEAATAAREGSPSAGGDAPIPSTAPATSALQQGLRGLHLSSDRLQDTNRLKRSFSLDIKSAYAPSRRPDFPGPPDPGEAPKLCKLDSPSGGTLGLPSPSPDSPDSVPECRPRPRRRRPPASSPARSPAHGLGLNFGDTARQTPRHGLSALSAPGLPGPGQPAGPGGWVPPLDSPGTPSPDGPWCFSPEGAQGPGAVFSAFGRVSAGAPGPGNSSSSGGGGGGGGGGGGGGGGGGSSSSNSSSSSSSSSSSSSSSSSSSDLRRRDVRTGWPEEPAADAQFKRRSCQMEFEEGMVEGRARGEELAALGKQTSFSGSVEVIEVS
Assay: affinity purification with mass spectrometry; anti-myc (DUSP8) immunocomplexes digested with trypsin, LC-MS/MS (LTQ-Orbitrap Elite); cells not given

B1: Pur-α found in the DUSP8 immunocomplexes (protein, UniProt Q00577 1-322)
chain: MADRDSGSEQGGAALGSGGSLGHPGSGSGSGGGGGGGGGGGGSGGGGGGAPGGLQHETQELASKRVDIQNKRFYLDVKQNAKGRFLKIAEVGAGGNKSRLTLSMSVAVEFRDYLGDFIEHYAQLGPSQPPDLAQAQDEPRRALKSEFLVRENRKYYMDLKENQRGRFLRIRQTVNRGPGLGSTQGQTIALPAQGLIEFRDALAKLIDDYGVEEEPAELPEGTSLTVDNKRFFFDVGSNKYGVFMRVSEVKPTYRNSITVPYKVWAKFGHTFCKYSEEMKKIQEKQREKRAACEQLHQQQQQQQEETAAATLLLQGEEEGEED
binding: binds
